# Results as given in the supplement of paper PMC8728848.
# This is one part of the list.
# B1: FimA-N2 (Actinomyces oris) (protein)
# chain: MHHHHHHSSGVDLGTENLYFQSNAWIYDVNVYPKNEAIDVDKTIQAQKLNGYGVGSLIKFPVESTAPTLDAKSFYKYFQLKDTLDERLSEVTATDVSLEGTPLQPTDYKVETKQQTVTVTFTAEGLKKIKAAPGKKVSAVFQGKVTKAGNGAITNRAQVISDTLYAEQPPTPETPPTDPENPPTSDEVISRWGDLSIKKVDTHQQGQTKA
# Legend:
# Assay in all cases: glycan array binding signal (z-score within array); higher = stronger binding
# Conditions in all cases: glycan notation: IUPAC condensed, linker removed
# [1] = target: Gal(b1-3)GlcNAc(b1-2)Man(a1-3)[Gal(b1-3)GlcNAc(b1-2)Man(a1-6)]Man(b1-4)GlcNAc(b1-4)[Fuc(a1-6)]GlcNAc
# Outline: (§1)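 Arrays were curated from the Consortium for Functional Glycomics database, 3228 in total, and kept only where the protein sequence was available. Binding is expressed as a within-array Z-score. This score was averaged across arrays of the same protein sequence at different concentrations or buffers and across linkers, and negative values can be read as non-binding.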
# [2] = target: Gal(b1-3)GlcNAc(b1-2)Man(a1-3)[GlcNAc(b1-4)][Gal(b1-3)GlcNAc(b1-2)Man(a1-6)]Man(b1-4)GlcNAc(b1-4)GlcNAc
# Outline: as §1
# [3] = target: Gal(b1-3)GlcNAc(b1-2)[Gal(b1-3)GlcNAc(b1-6)]Man(a1-6)[Gal(b1-3)GlcNAc(b1-2)Man(a1-3)]Man(b1-4)GlcNAc(b1-4)GlcNAc
# Outline: as §1
# [4] = target: Gal(b1-3)GlcNAc(b1-3)Gal(b1-3)GlcNAc
# Outline: as §1
# [5] = target: Gal(b1-3)GlcNAc(b1-3)Gal(b1-4)Glc
# Outline: as §1
# [6] = target: Gal(b1-3)GlcNAc(b1-3)Gal(b1-4)GlcNAc
# Outline: as §1
# [7] = target: Gal(b1-3)GlcNAc(b1-3)Gal(b1-4)GlcNAc(b1-2)Man(a1-3)[Gal(b1-3)GlcNAc(b1-3)Gal(b1-4)GlcNAc(b1-2)Man(a1-6)]Man(b1-4)GlcNAc(b1-4)GlcNAc
# Outline: as §1
# [8] = target: Gal(b1-3)GlcNAc(b1-3)Gal(b1-4)GlcNAc(b1-2)[Gal(b1-3)GlcNAc(b1-3)Gal(b1-4)GlcNAc(b1-6)]Man(a1-6)[Gal(b1-3)GlcNAc(b1-3)Gal(b1-4)GlcNAc(b1-2)Man(a1-3)]Man(b1-4)GlcNAc(b1-4)[Fuc(a1-6)]GlcNAc
# Outline: as §1
# [9] = target: Gal(b1-3)GlcNAc(b1-3)Gal(b1-4)GlcNAc(b1-3)Gal(b1-4)GlcNAc(b1-2)[Gal(b1-3)GlcNAc(b1-3)Gal(b1-4)GlcNAc(b1-3)Gal(b1-4)GlcNAc(b1-6)]Man(a1-6)[Gal(b1-3)GlcNAc(b1-3)Gal(b1-4)GlcNAc(b1-3)Gal(b1-4)GlcNAc(b1-2)Man(a1-3)]Man(b1-4)GlcNAc(b1-4)[Fuc(a1-6)]GlcNAc
# Outline: as §1
# [10] = target: Gal(b1-3)GlcNAc(b1-3)Gal(b1-4)GlcNAc(b1-6)[Gal(b1-3)GlcNAc(b1-3)]Gal(b1-4)Glc
# Outline: as §1
# [11] = target: Gal(b1-3)GlcNAc(b1-3)Gal(b1-4)[Fuc(a1-3)]GlcNAc
# Outline: as §1
# [12] = target: Gal(b1-3)GlcNAc(b1-3)Gal(b1-4)[Fuc(a1-3)]GlcNAc(b1-6)[Gal(b1-3)GlcNAc(b1-3)]Gal(b1-4)Glc
# Outline: as §1
# [13] = target: Gal(b1-3)GlcNAc(b1-3)GalNAc
# Outline: as §1
# [14] = target: Gal(b1-3)GlcNAc(b1-6)Gal(b1-4)GlcNAc
# Outline: as §1
# [15] = target: Gal(b1-3)GlcNAc(b1-6)GalNAc
# Outline: as §1
# [16] = target: Gal(b1-3)GlcNAc(b1-6)[Gal(b1-3)]GalNAc
# Outline: as §1
# Gal(b1-3)GlcNAc6S = target: Gal(b1-3)GlcNAc6S
# Outline: as §1
# [17] = target: Gal(b1-3)[Fuc(a1-4)]GlcNAc
# Outline: as §1
# [18] = target: Gal(b1-3)[Fuc(a1-4)]GlcNAc(b1-2)Man
# Outline: as §1
# [19] = target: Gal(b1-3)[Fuc(a1-4)]GlcNAc(b1-2)Man(a1-3)[Gal(b1-3)[Fuc(a1-4)]GlcNAc(b1-2)Man(a1-6)]Man(b1-4)GlcNAc(b1-4)[Fuc(a1-6)]GlcNAc
# Outline: as §1
# [20] = target: Gal(b1-3)[Fuc(a1-4)]GlcNAc(b1-3)Gal(b1-3)[Fuc(a1-4)]GlcNAc
# Outline: as §1
# [21] = target: Gal(b1-3)[Fuc(a1-4)]GlcNAc(b1-3)Gal(b1-4)[Fuc(a1-3)]GlcNAc
# Outline: as §1
# [22] = target: Gal(b1-3)[Fuc(a1-4)]GlcNAc(b1-6)GalNAc
# Outline: as §1
# [23] = target: Gal(b1-3)[GlcNAc(b1-6)]GalNAc
# Outline: as §1
# [24] = target: Gal(b1-3)[Neu5Ac(a2-6)]GalNAc
# Outline: as §1
# [25] = target: Gal(b1-3)[Neu5Ac(a2-6)]GlcNAc(b1-4)Gal(b1-4)Glc
# Outline: as §1
# [26] = target: Gal(b1-3)[Neu5Ac(b2-6)]GalNAc
# Outline: as §1
# Gal(b1-4)Gal = target: Gal(b1-4)Gal
# Outline: as §1
# [27] = target: Gal(b1-4)GalNAc(a1-3)[Fuc(a1-2)]Gal(b1-4)GlcNAc
# Outline: as §1
# [28] = target: Gal(b1-4)GalNAc(b1-3)[Fuc(a1-2)]Gal(b1-4)GlcNAc
# Outline: as §1
# Gal(b1-4)Glc = target: Gal(b1-4)Glc
# Outline: as §1
# Gal(b1-4)Glc6S = target: Gal(b1-4)Glc6S
# Outline: as §1
# Gal(b1-4)GlcNAc = target: Gal(b1-4)GlcNAc
# Outline: as §1
# [29] = target: Gal(b1-4)GlcNAc(a1-6)Gal(b1-4)GlcNAc
# Outline: as §1
# Gal(b1-4)GlcNAc(b1-2)Man = target: Gal(b1-4)GlcNAc(b1-2)Man
# Outline: as §1
# [30] = target: Gal(b1-4)GlcNAc(b1-2)Man(a1-3)Man(b1-4)GlcNAc(b1-4)GlcNAc
# Outline: as §1
# [31] = target: Gal(b1-4)GlcNAc(b1-2)Man(a1-3)[Gal(b1-4)GlcNAc(b1-2)Man(a1-6)]Man(b1-4)GlcNAc(b1-4)GlcNAc
# Outline: as §1
# [32] = target: Gal(b1-4)GlcNAc(b1-2)Man(a1-3)[Gal(b1-4)GlcNAc(b1-2)Man(a1-6)]Man(b1-4)GlcNAc(b1-4)[Fuc(a1-6)]GlcNAc
# Outline: as §1
# [33] = target: Gal(b1-4)GlcNAc(b1-2)Man(a1-3)[Gal(b1-4)GlcNAc(b1-2)Man(a1-6)][Gal(b1-4)GlcNAc(b1-4)]Man(b1-4)GlcNAc(b1-4)[Fuc(a1-6)]GlcNAc
# Outline: as §1
# [34] = target: Gal(b1-4)GlcNAc(b1-2)Man(a1-3)[Gal(b1-4)GlcNAc(b1-2)Man(a1-6)][GlcNAc(b1-4)]Man(b1-4)GlcNAc(b1-4)[Fuc(a1-6)]GlcNAc
# Outline: as §1
# [35] = target: Gal(b1-4)GlcNAc(b1-2)Man(a1-3)[GlcNAc(b1-2)Man(a1-6)]Man(b1-4)GlcNAc(b1-4)GlcNAc
# Outline: as §1
# [36] = target: Gal(b1-4)GlcNAc(b1-2)Man(a1-3)[GlcNAc(b1-4)][Gal(b1-4)GlcNAc(b1-2)Man(a1-6)]Man(b1-4)GlcNAc(b1-4)GlcNAc
# Outline: as §1
# [37] = target: Gal(b1-4)GlcNAc(b1-2)Man(a1-3)[Man(a1-6)]Man(b1-4)GlcNAc(b1-4)GlcNAc
# Outline: as §1
# [38] = target: Gal(b1-4)GlcNAc(b1-2)Man(a1-6)Man(b1-4)GlcNAc(b1-4)GlcNAc
# Outline: as §1
# [39] = target: Gal(b1-4)GlcNAc(b1-2)Man(a1-6)[GlcNAc(b1-2)Man(a1-3)]Man(b1-4)GlcNAc(b1-4)GlcNAc
# Outline: as §1
binder,measurement,setting,value
B1,glycan array binding signal (z-score),[1],2.23
same,glycan array binding signal (z-score),[2],-0.373
same,glycan array binding signal (z-score),[3],0.217
same,glycan array binding signal (z-score),[4],0.328
same,glycan array binding signal (z-score),[5],-1.65
same,glycan array binding signal (z-score),[6],-0.883
same,glycan array binding signal (z-score),[7],0.23
same,glycan array binding signal (z-score),[8],3.71
same,glycan array binding signal (z-score),[9],-0.719
same,glycan array binding signal (z-score),[10],-0.655
same,glycan array binding signal (z-score),[11],-0.39
same,glycan array binding signal (z-score),[12],0.426
same,glycan array binding signal (z-score),[13],-0.958
same,glycan array binding signal (z-score),[14],0.036
same,glycan array binding signal (z-score),[15],-1.24
same,glycan array binding signal (z-score),[16],-0.51
same,glycan array binding signal (z-score),Gal(b1-3)GlcNAc6S,-0.106
same,glycan array binding signal (z-score),[17],0.004
same,glycan array binding signal (z-score),[18],-0.351
same,glycan array binding signal (z-score),[19],-0.298
same,glycan array binding signal (z-score),[20],-0.124
same,glycan array binding signal (z-score),[21],1.03
same,glycan array binding signal (z-score),[22],-0.651
same,glycan array binding signal (z-score),[23],-0.076
same,glycan array binding signal (z-score),[24],-0.867
same,glycan array binding signal (z-score),[25],-1.15
same,glycan array binding signal (z-score),[26],-0.556
same,glycan array binding signal (z-score),Gal(b1-4)Gal,-0.537
same,glycan array binding signal (z-score),[27],-0.178
same,glycan array binding signal (z-score),[28],-0.992
same,glycan array binding signal (z-score),Gal(b1-4)Glc,0.433
same,glycan array binding signal (z-score),Gal(b1-4)Glc6S,-0.103
same,glycan array binding signal (z-score),Gal(b1-4)GlcNAc,-0.39
same,glycan array binding signal (z-score),[29],-0.568
same,glycan array binding signal (z-score),Gal(b1-4)GlcNAc(b1-2)Man,-0.413
same,glycan array binding signal (z-score),[30],-0.669
same,glycan array binding signal (z-score),[31],1.4
same,glycan array binding signal (z-score),[32],-1.08
same,glycan array binding signal (z-score),[33],1.48
same,glycan array binding signal (z-score),[34],-0.929
same,glycan array binding signal (z-score),[35],-0.393
same,glycan array binding signal (z-score),[36],-0.36
same,glycan array binding signal (z-score),[37],0.37
same,glycan array binding signal (z-score),[38],1.29
same,glycan array binding signal (z-score),[39],-1.43

# Looked up one by one from the entries so far:
binder,measurement,setting,value
B1,glycan array binding signal (z-score),[24],-0.867
same,glycan array binding signal (z-score),[15],-1.24
